Measured values reported in article PMC6581720 (Frontiers in Microbiology, 2019).
No constants are given. Whether binding was seen depends on the method and setting. Tags and fused reporters may be left off the sequences shown.

What was measured:
[1] = target: SpoIVB^S378A (inactive sporulation factor IV B protease, truncated Thr75-Ser426, fused to 6xHis and mMBP tags) (B. subtilis (strain 168)) (UniProt P17896); experiment: SEC; Superdex 200 Increase 10/300 GL, 20 mM Tris-HCl, 500 mM NaCl, 5% glycerol pH 8.0; retention volume 13.54 ml against standards of 158 kDa and 44 kDa; both purified
[2] = target: SpoIVB^S378A (inactive sporulation factor IV B protease, truncated Thr75-Ser426, fused to 6xHis and mMBP tags) (B. subtilis (strain 168)) (UniProt P17896); experiment: dynamic light scattering; 0.1, 0.25 and 0.5 mg/ml in 20 mM Tris-HCl, 150 mM NaCl, 5% glycerol pH 8.0, 25°C; both purified
[3] = target: SpoIVB^S378A (inactive sporulation factor IV B protease, truncated Thr75-Ser426, fused to 6xHis and mMBP tags) (B. subtilis (strain 168)) (UniProt P17896); experiment: SAXS; 1, 2.5 and 5 mg/ml, 283 K, beamline BL19U2; molecular weight from SAXSMoW; both purified

B1: SpoIVB^S378A (inactive sporulation factor IV B protease, truncated Thr75-Ser426, fused to 6xHis and mMBP tags) (enzyme, UniProt P17896 75-426)
chain: TGKKSGESELVYDLAGFPIKKTKVHVLPDLKVIPGGQSIGVKLHSVGVLVVGFHQINTSEGKKSPGETAGIEAGDIIIEMNGQKIEKMNDVAPFIQKAGKTGESLDLLIKRDKQKIKTKLIPEKDEGEGKYRIGLYIRDSAAGIGTMTFYEPKTKKYGALGHVISDMDTKKPIVVENGEIVKSTVTSIEKGTGGNPGEKLARFSSERKTIGDINRNSPFGIFGTLHQPIQNNISDQALPVAFSTEVKKGPAEILTVIDDDKVEKFDIEIVSTTPQKFPATKGMVLKITDPRLLKETGGIVQGMAGSPIIQNGKVIGAVTHVFVNDPTSGYGVHIEWMLSEAGIDIYGKEKAS
With B1 the binding [1] was “no binding”, the binding [2] was “no binding (tested: 0.5 mg/ml)” and the binding [3] was “no binding (tested: 5 mg/ml)”.
